Source: PubChem BioAssay AID493014 (National Center for Advancing Translational Sciences (NCATS), 2011)
The list shows a part of the results. These are further read-outs of the screen, such as a control signal, another cell line or another target. No call is given for them. The list favours compounds with an active or inconclusive main result. Words in brackets tell the shape of the fitted curve; partial curves, single points and poor fits give uncertain potencies.

Assay: qHTS Assay to Find Inhibitors of Chronic Active B-Cell Receptor Signaling
Settings: ABC-DLBCL IkBa-CBG/CBR reporter, luminescence ratio (green luciferase fused to IkBa over red control in TMD8 lymphoma cells), 4 h
Outline: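 TMD8 ABC-DLBCL cells carrying doxycycline-inducible green luciferase fused to IkappaBalpha plus unfused red luciferase were exposed to compounds (up to 46 uM) for 4 hrs at 37C. Activity came from the overlap-corrected green/red luminescence ratio.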

[1] = measured here: CBR red luminescence, cell number
[2] = measured here: IkBa-CBG green luminescence

| Structure (SMILES) | AC50 [1] | AC50 [2] |
| --- | --- | --- |
| N#C/C(=C/c1ccc(N2CCCCC2)cc1)c1cccc(F)c1 | 6.51 µM [rising, partial curve] | – |
| CCCc1nnc(-c2ccc(OC)cc2)o1 | 25.9 µM [rising, single point] | – |
| O=C(N/N=C/c1coc2ccccc2c1=O)c1ccccc1 | 3.16 µM [falling, partial curve, poor fit] | – |
| O=C(COC(=O)c1ccc(O)cc1O)Nc1nnc(-c2ccccc2)o1 | 16.4 µM [falling, partial curve, poor fit] | – |
| CN(C(=O)CSc1cc(Cl)ccc1Cl)C1CCS(=O)(=O)C1 (centres undefined) | 23.1 µM [falling, partial curve, poor fit] | – |
| O=C(NC1CCCC1)c1cc2c(ccc3ccccc32)o1 | 0.231 µM [falling, full curve, poor fit] | – |
| COc1ccc(CCNC(=O)c2cc(C3CC3)on2)cc1OC | 0.501 µM [rising, full curve, poor fit] | – |
| CC1=NN(c2ccc([N+](=O)[O-])cc2)C(c2ccccc2)C1 (centres undefined) | 14.1 µM [falling, partial curve, poor fit] | – |
| Cc1nc(C#N)c(N/N=C/c2cccc(Cl)c2)o1 | 25.9 µM [rising, single point] | – |
| Cn1cnc2cc(NCc3ccccc3O)ccc21 | 15.8 µM [falling, single point] | – |
| Cc1ccccc1CNC(=O)C(=O)NCC(c1ccco1)S(=O)(=O)c1ccc(F)cc1 (centres undefined) | 5.62 µM [rising, single point] | – |
| CC(C)(C)c1ccc(C(=O)NCCC(=O)NNC(=O)COc2ccccc2F)cc1 | 20.6 µM [rising, partial curve, poor fit] | 13 µM [falling, partial curve, poor fit] |
| Cc1cccc(CN2CCc3c(OCC(=O)N4CCCc5ccccc54)cccc3C2=O)c1 | 6.51 µM [falling, partial curve] | – |
| O=C(O)C1C2C=CC(O2)C1C(=O)Nc1ccccc1C(F)(F)F (centres undefined) | 1.46 µM [falling, partial curve, poor fit] | – |
| CN1CCc2c(sc(/N=C/c3c[nH]c4ccccc34)c2C#N)C1 | 2.82 µM [falling, partial curve, poor fit] | – |
| O=[N+]([O-])c1ccc(COc2cccnc2)cc1 | 14.1 µM [rising, single point] | – |
| CC1CCc2[nH]c3ccc(C(=O)N(C)CC(=O)Nc4ccc(F)cc4)cc3c2C1 (centres undefined) | 35.5 µM [falling, single point] | – |
| Cc1cccc(OCCOC(=O)c2ccc(F)c(S(=O)(=O)N3CCOCC3)c2)c1 | 1.84 µM [rising, partial curve, poor fit] | – |
| O=C(Nc1ccc2ccccc2c1)N1CCN(c2ncccc2C(F)(F)F)CC1 | 12.6 µM [falling, single point] | – |
| COc1cccc(/C=C2/SC(=S)N(CCCC(=O)Nc3ccc(O)cc3)C2=O)c1 | 2.82 µM [falling, partial curve] | – |
| Cc1cccc(C(=O)NC(=S)Nc2ccccc2C(=O)O)c1 | 10 µM [falling, partial curve] | – |

Record cards (already shown). Order of values: AC50 [1] | AC50 [2]
CCCc1nnc(-c2ccc(OC)cc2)o1 as listed: 25.9 µM [rising, single point] | –
CN1CCc2c(sc(/N=C/c3c[nH]c4ccccc34)c2C#N)C1 as listed: 2.82 µM [falling, partial curve, poor fit] | –

(continued)

| Structure (SMILES) | AC50 [1] | AC50 [2] |
| --- | --- | --- |
| O=C(O)Cc1ccc(NC(=O)COc2ccc3ccccc3c2)cc1 | 11.2 µM [falling, partial curve] | – |
| CCCc1[nH]n(-c2nc3ccccc3s2)c(=O)c1C=NCCN1CCOCC1 | 16.4 µM [falling, partial curve, poor fit] | – |
| O=C(CSc1c2c(nc3cc(Cl)ccc13)CCCC2)NCCCN1CCOCC1 | 7.94 µM [falling, partial curve, poor fit] | – |
| CC(=O)N1CCc2cc(C(=O)CN3CCCCC3)ccc21 | 14.1 µM [rising, single point] | – |
| Cc1nc2sc(-c3ccccc3)cc2c(=O)n1N | 3.55 µM [falling, full curve, poor fit] | – |
| CC(C)c1ccc(/C=N/NC(=O)c2c(Cl)cnn2C)cc1 | 9.2 µM [falling, partial curve] | – |
| CCCC1=C(C(=O)OCC)C(c2ccco2)n2ncnc2N1 (centres undefined) | 5.62 µM [falling, full curve] | – |
| N#CC1=C(N)Oc2n[nH]c(-c3ccccc3)c2C1c1cccnc1 (centres undefined) | 29.1 µM [rising, single point] | – |
| C=CCOc1ccc(C2CC(C)=NN2c2ccccc2)cc1 (centres undefined) | 20.6 µM [rising, partial curve, poor fit] | – |
| O=c1[nH]c(NNC(=S)NCc2ccccc2)nc2c1C1(CCCCC1)Cc1ccccc1-2 | 29.1 µM [falling, single point] | 18.4 µM [rising, partial curve, poor fit] |
| Cc1sc2nc(SCC(=O)NCCO)n(C)c(=O)c2c1C | 10.3 µM [rising, partial curve, poor fit] | – |
| CCOC(=O)c1cc(-c2ccc(F)cc2)n(CCC(=O)NC2CCN(Cc3ccccc3)CC2)c1C | 35.5 µM [falling, partial curve, poor fit] | – |
| O=S(=O)(Nc1cccc2ncccc12)c1cccs1 | 7.31 µM [rising, partial curve] | 5.17 µM [falling, full curve] |
| Nc1cccc(C(=O)OCC(=O)Nc2cccc3c2C(=O)c2ccccc2C3=O)c1 | 4.61 µM [rising, single point] | – |
| CCCCC(=O)NCCc1cc2c(OC)ccc(OC)c2[nH]c1=O | 35.5 µM [rising, partial curve, poor fit] | – |
| Nc1c(N(CCC2=CCCCC2)C(=O)c2ccco2)c(=O)[nH]c(=O)n1Cc1ccccc1 | 18.4 µM [falling, single point] | – |
| C/C(=N\NC(=O)c1ccco1)c1cc2ccccc2o1 | 32.6 µM [falling, single point] | – |
| Cn1c(NC(=O)c2ccccc2)nc2ccccc21 | 11.2 µM [falling, partial curve] | – |
| CCN1C(=O)c2cccc3c(S(=O)(=O)NCc4cccnc4)ccc1c23 | 29.1 µM [rising, single point] | – |
| Cc1ccc(S(=O)(=O)/N=C(/Nc2ccc([N+](=O)[O-])cc2)c2ccccc2)cc1 | 1.41 µM [rising, partial curve, poor fit] | – |
